Reference: the supplement of paper PMC4604168 (melanoma cell lines)
The list shows a part of the results. Single values are uncertain, as repeats are few or missing.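 Cells were imaged in 1,536-well plates, and nuclei stained with an antibody against cleaved PARP were counted against all DNA-stained nuclei to give the apoptosis fraction. Screening doses were chosen to leave most cells alive, and resting and induced cleaved-PARP levels differ strongly between cell lines.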

Columns and labels:
Test in all cases: cleaved PARP positive nuclei fraction relative to DMSO control; melanoma cells; higher = more apoptosis
Conditions in all cases: library dose: low library concentration; 72 h
501Mel = tested on: 501Mel
A101D = tested on: A101D
A2058 = tested on: A2058
A375 = tested on: A375
C32 = tested on: C32
CBRC013 = tested on: CBRC013 (line from a melanoma biopsy)
CBRC014 = tested on: CBRC014 (line from a melanoma biopsy)
CBRC016 = tested on: CBRC016 (line from a melanoma biopsy)
CBRC017 = tested on: CBRC017 (line from a melanoma biopsy)
CBRC008 = tested on: CBRC008 (line from a melanoma biopsy)

| SMILES | cleaved PARP positive nuclei fraction (501Mel) | cleaved PARP positive nuclei fraction (A101D) | cleaved PARP positive nuclei fraction (A2058) | cleaved PARP positive nuclei fraction (A375) | cleaved PARP positive nuclei fraction (C32) | cleaved PARP positive nuclei fraction (CBRC013) | cleaved PARP positive nuclei fraction (CBRC014) | cleaved PARP positive nuclei fraction (CBRC016) | cleaved PARP positive nuclei fraction (CBRC017) | cleaved PARP positive nuclei fraction (CBRC008) |
| --- | --- | --- | --- | --- | --- | --- | --- | --- | --- | --- |
| COC(=O)c1sccc1S(=O)(=O)Nc1ccc(Nc2ccccc2)cc1OC + O=C(Oc1ccc([N+](=O)[O-])cc1)N1CCC(C(O)(c2ccc3c(c2)OCO3)c2ccc3c(c2)OCO3)CC1 [JZL184] (first compound 1 µM, partner dose 1 µM) | 31.5% | 68.2% | 75.5% | 304% | 32.8% | 65.7% | 87.5% | 63.8% | 81.8% |  |
| COC(=O)c1sccc1S(=O)(=O)Nc1ccc(Nc2ccccc2)cc1OC + Cc1cc(SCc2sc(-c3ccc(C(F)(F)F)c(F)c3)nc2C)ccc1OCC(=O)O [GW0742] (first compound 1 µM, partner dose 2 µM) | 76.5% | 109% | 91.8% | 33.4% | 71.9% | 272% | 114% | 57.2% | 88.7% |  |
| CO[C@@H]1[C@H](N(C)C(=O)c2ccccc2)C[C@H]2O[C@]1(C)n1c3ccccc3c3c4c(c5c6ccccc6n2c5c31)C(=O)NC4 [Midostaurin] + O=C(Oc1ccc([N+](=O)[O-])cc1)N1CCC(C(O)(c2ccc3c(c2)OCO3)c2ccc3c(c2)OCO3)CC1 [JZL184] (first compound 0.08 µM, partner dose 1 µM) | 90.4% | 33.2% | 103% | 62.5% | 38.3% | 140% | 92.3% | 121% | 80.2% |  |
| Nc1cccc2c1CN(C1CCC(=O)NC1=O)C2=O (configuration not stated) [lenalidomide] + C/C(O)=C(\C#N)C(=O)Nc1cc(Br)ccc1Br [LFM-A13] (first compound 1 µM, partner dose 2 µM) | 148% | 52.2% | 102% | 134% | 125% | 34.2% | 82.8% | 73.1% | 144% |  |
| CN(C)S(=O)(=O)c1ccc2c(c1)/C(=C/c1cc3c([nH]1)CCCC3)C(=O)N2 + C/C(O)=C(\C#N)C(=O)Nc1cc(Br)ccc1Br [LFM-A13] (first compound 0.4 µM, partner dose 2 µM) | 73.9% | 135% | 107% | 80.9% | 73.5% | 49.6% | 127% | 139% | 86% |  |
| NCC(=O)Nc1ccc(-n2nc(C(F)(F)F)cc2-c2ccc3c(ccc4ccccc43)c2)cc1 + Cc1cc(SCc2sc(-c3ccc(C(F)(F)F)c(F)c3)nc2C)ccc1OCC(=O)O [GW0742] (first compound 1 µM, partner dose 2 µM) | 366% | 137% | 93.6% | 4600% | 44.2% | 159% | 98.1% | 131% | 69.7% |  |
| Cc1cc(N2CCOCC2)cc2[nH]c(-c3c(NC[C@@H](O)c4cccc(Cl)c4)cc[nH]c3=O)nc12 + C/C(O)=C(\C#N)C(=O)Nc1cc(Br)ccc1Br [LFM-A13] (first compound 0.2 µM, partner dose 2 µM) | 32.5% | 117% | 132% | 97.4% | 114% | 85.8% | 110% | 40.6% | 82.1% |  |
| C/C(O)=C(\C#N)C(=O)Nc1cc(Br)ccc1Br + O=C1NC(=O)/C(=C/c2ccc(-c3ccc(F)cc3O)o2)S1 [AS252424] (first compound 2 µM, partner dose 1 µM) | 131% | 117% | 33.9% | 145% | 69.9% | 141% | 97.8% | 87.6% | 91.2% |  |
| O=C(O)c1ccc(-c2c[nH]c3ncc(-c4ccccc4)cc23)cc1C1CCCC1 + Cc1cc(SCc2sc(-c3ccc(C(F)(F)F)c(F)c3)nc2C)ccc1OCC(=O)O [GW0742] (first compound 0.16 µM, partner dose 2 µM) | 84.5% | 104% | 80.3% | 169% | 136% | 56.6% | 95.9% | 129% | 113% |  |
| CC1(C)NC(=O)N(c2ccc([N+](=O)[O-])c(C(F)(F)F)c2)C1=O [nilutamide] + Cc1cc(SCc2sc(-c3ccc(C(F)(F)F)c(F)c3)nc2C)ccc1OCC(=O)O [GW0742] (first compound 1 µM, partner dose 2 µM) | 82.2% | 220% | 80.5% | 98.2% | 143% | 90.8% | 101% | 159% | 78.7% |  |
| O=C(Nc1ccccc1)c1cc([N+](=O)[O-])ccc1Cl + O=C(Oc1ccc([N+](=O)[O-])cc1)N1CCC(C(O)(c2ccc3c(c2)OCO3)c2ccc3c(c2)OCO3)CC1 [JZL184] (first compound 2 µM, partner dose 1 µM) | 54.5% | 36.1% | 122% | 122% | 93.7% | 123% | 87.4% | 56.2% | 83.3% |  |
| CC1(C)NC(=O)N(c2ccc([N+](=O)[O-])c(C(F)(F)F)c2)C1=O [nilutamide] + O=C(Oc1ccc([N+](=O)[O-])cc1)N1CCC(C(O)(c2ccc3c(c2)OCO3)c2ccc3c(c2)OCO3)CC1 [JZL184] (first compound 1 µM, partner dose 1 µM) | 148% | 33.8% | 98.4% | 36.6% | 31.7% | 131% | 97% | 21% | 64.8% |  |
| C#Cc1cccc(Nc2ncnc3cc(OCCOC)c(OCCOC)cc23)c1 [erlotinib] + C/C(O)=C(\C#N)C(=O)Nc1cc(Br)ccc1Br [LFM-A13] (first compound 0.8 µM, partner dose 2 µM) | 75% | 187% | 80% | 266% | 83.6% | 46.5% | 80.6% | 65.6% | 113% |  |
| Cn1nnc2c(C(N)=O)ncn2c1=O [temozolomide] + Cc1cc(SCc2sc(-c3ccc(C(F)(F)F)c(F)c3)nc2C)ccc1OCC(=O)O [GW0742] (first compound 2 µM, partner dose 2 µM) | 89.5% | 218% | 91.5% | 63.5% | 26.4% | 96.5% | 115% | 23% | 193% |  |
| Cn1cncc1[C@@](N)(c1ccc(Cl)cc1)c1ccc2c(c1)c(-c1cccc(Cl)c1)cc(=O)n2C [tipifarnib] + C/C(O)=C(\C#N)C(=O)Nc1cc(Br)ccc1Br [LFM-A13] (first compound 0.01 µM, partner dose 2 µM) | 71.7% | 142% | 82.3% | 172% | 15.6% | 249% | 114% | 133% | 86.4% |  |
| Cc1cc(SCc2sc(-c3ccc(C(F)(F)F)c(F)c3)nc2C)ccc1OCC(=O)O + Cc1cc([N+](=O)[O-])ccc1NS(=O)(=O)c1cc(Cl)ccc1Cl [FH535] (first compound 2 µM, partner dose 1 µM) | 74.4% | 93.1% | 44.4% | 53.2% | 35% | 65.7% | 104% | 1330% | 121% |  |
| C[C@]1(O)C[C@@H](c2nc(-c3ccc4ccc(-c5ccccc5)nc4c3)c3c(N)nccn32)C1 + Cc1cc(SCc2sc(-c3ccc(C(F)(F)F)c(F)c3)nc2C)ccc1OCC(=O)O [GW0742] (first compound 0.4 µM, partner dose 2 µM) | 81.2% | 27.6% | 90.1% |  | 194% |  | 119% | 99.2% | 105% | 163% |
| Cn1cc(C2=C(c3cn(C4CCN(Cc5ccccn5)CC4)c4ccccc34)C(=O)NC2=O)c2ccccc21 [Enzastaurin] + COc1ccc2c(c1)CCC1C2CCC2(C)C(NCCCCCCN3C(=O)C=CC3=O)CCC12 [U73122] (first compound 0.8 µM, partner dose 0.4 µM) | 97.5% | 27.6% | 62% |  | 163% |  | 124% | 88% | 149% | 114% |
| CC1(C)CCC(c2ccc(Cl)cc2)=C(CN2CCN(c3ccc(C(=O)NS(=O)(=O)c4ccc(N[C@H](CCN5CCOCC5)CSc5ccccc5)c(S(=O)(=O)C(F)(F)F)c4)cc3)CC2)C1 + Cc1cc(SCc2sc(-c3ccc(C(F)(F)F)c(F)c3)nc2C)ccc1OCC(=O)O [GW0742] (first compound 0.4 µM, partner dose 2 µM) | 98.3% | 50.3% | 57.4% |  | 299% |  | 713% | 549% | 344% | 857% |
| N#CC[C@H](C1CCCC1)n1cc(-c2ncnc3[nH]ccc23)cn1 [ruxolitinib] + O=C(Oc1ccc([N+](=O)[O-])cc1)N1CCC(C(O)(c2ccc3c(c2)OCO3)c2ccc3c(c2)OCO3)CC1 [JZL184] (first compound 1 µM, partner dose 1 µM) | 72.6% | 16.3% | 65% |  | 18.2% |  | 85.7% | 160% | 176% | 159% |
| CCN(CC)CCNC(=O)c1c(C)[nH]c(/C=C2\C(=O)Nc3ccc(F)cc32)c1C [sunitinib] + Cc1cc(SCc2sc(-c3ccc(C(F)(F)F)c(F)c3)nc2C)ccc1OCC(=O)O [GW0742] (first compound 0.4 µM, partner dose 2 µM) | 81.1% | 37.7% | 85.7% |  | 37.4% |  | 101% | 77.5% | 150% | 192% |
| CO[C@H]1C[C@@H]2CC[C@@H](C)[C@@](O)(O2)C(=O)C(=O)N2CCCC[C@H]2C(=O)O[C@H]([C@H](C)C[C@@H]2CC[C@@H](OCCO)[C@H](OC)C2)CC(=O)[C@H](C)/C=C(\C)[C@@H](O)[C@@H](OC)C(=O)[C@H](C)C[C@H](C)/C=C/C=C/C=C/1C [everolimus] + Cc1cc(SCc2sc(-c3ccc(C(F)(F)F)c(F)c3)nc2C)ccc1OCC(=O)O [GW0742] (first compound 0.02 µM, partner dose 2 µM) | 182% | 19.3% | 51.7% |  | 220% |  | 83% | 6630% | 86.5% | 117% |

Retrieved one by one from the list above:

| SMILES | cleaved PARP positive nuclei fraction (501Mel) | cleaved PARP positive nuclei fraction (A101D) | cleaved PARP positive nuclei fraction (A2058) | cleaved PARP positive nuclei fraction (A375) | cleaved PARP positive nuclei fraction (C32) | cleaved PARP positive nuclei fraction (CBRC013) | cleaved PARP positive nuclei fraction (CBRC014) | cleaved PARP positive nuclei fraction (CBRC016) | cleaved PARP positive nuclei fraction (CBRC017) | cleaved PARP positive nuclei fraction (CBRC008) |
| --- | --- | --- | --- | --- | --- | --- | --- | --- | --- | --- |
| CC1(C)CCC(c2ccc(Cl)cc2)=C(CN2CCN(c3ccc(C(=O)NS(=O)(=O)c4ccc(N[C@H](CCN5CCOCC5)CSc5ccccc5)c(S(=O)(=O)C(F)(F)F)c4)cc3)CC2)C1 + Cc1cc(SCc2sc(-c3ccc(C(F)(F)F)c(F)c3)nc2C)ccc1OCC(=O)O [GW0742] (first compound 0.4 µM, partner dose 2 µM) | 98.3% | 50.3% | 57.4% |  | 299% |  | 713% | 549% | 344% | 857% |
| NCC(=O)Nc1ccc(-n2nc(C(F)(F)F)cc2-c2ccc3c(ccc4ccccc43)c2)cc1 + Cc1cc(SCc2sc(-c3ccc(C(F)(F)F)c(F)c3)nc2C)ccc1OCC(=O)O [GW0742] (first compound 1 µM, partner dose 2 µM) | 366% | 137% | 93.6% | 4600% | 44.2% | 159% | 98.1% | 131% | 69.7% |  |
